# Measurements from US20100136537.
# Chains of the proteins cited; added tags and fusions are not shown.
# UniProt P54845, whole entry A76V: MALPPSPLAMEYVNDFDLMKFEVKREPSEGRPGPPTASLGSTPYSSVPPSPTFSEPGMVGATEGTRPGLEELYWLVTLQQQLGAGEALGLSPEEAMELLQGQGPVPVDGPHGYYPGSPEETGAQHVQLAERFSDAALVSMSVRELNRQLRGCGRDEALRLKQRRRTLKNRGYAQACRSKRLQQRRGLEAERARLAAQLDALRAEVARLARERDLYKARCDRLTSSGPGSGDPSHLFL
# UniProt P54845, whole entry L160P: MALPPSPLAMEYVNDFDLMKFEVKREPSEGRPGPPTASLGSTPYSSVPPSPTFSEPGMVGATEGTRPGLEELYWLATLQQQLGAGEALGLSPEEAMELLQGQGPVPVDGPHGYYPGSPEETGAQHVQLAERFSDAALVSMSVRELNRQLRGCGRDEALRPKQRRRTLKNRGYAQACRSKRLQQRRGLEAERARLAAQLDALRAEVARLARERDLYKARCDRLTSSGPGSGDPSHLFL
# At least one result comes from cells or an extract, where the contact may be indirect. For some assays here: No signal at the amounts used counts as a negative. For some assays here: Protein sequences can lack the tags named with them. For some assays here: Weaker means in comparison with the reference protein, sequence or condition of that experiment. For some assays here: The exact form of at least one protein or probe is not confirmed.
# Key:
# NRL [1] = biological target: NRL (UniProt P54845); experiment: EMSA; conditions: protein in a lysate after overexpression; label: 32P
# NRL p.A76V = NRL p.A76V (UniProt P54845); experiment: EMSA; conditions: appeared lower than WT binding; protein in a lysate after overexpression; label: 32P
# NRL p.L160P = NRL p.L160P (UniProt P54845); experiment: EMSA; conditions: protein in a lysate after overexpression; label: 32P
# NRL p.L160fs = NRL p.L160fs (UniProt P54845); experiment: EMSA; conditions: protein in a lysate after overexpression; label: 32P
# NRL p.R218fs = NRL p.R218fs (UniProt P54845); experiment: EMSA; conditions: protein in a lysate after overexpression; label: 32P
# NRL [2] = biological target: NRL (UniProt P54845); experiment: competition with a labelled probe; conditions: NS oligo did not compete for the shifted band; protein in a lysate after overexpression
# NRL [3] = biological target: T1, NRL (UniProt P54846); experiment: competition with a labelled probe; conditions: mutant oligo did not compete; protein in a lysate after overexpression; protein details: COS-1 nuclear extract; variant of Nr2e3-NRE
# T1 sequence (looked up, limits assumed): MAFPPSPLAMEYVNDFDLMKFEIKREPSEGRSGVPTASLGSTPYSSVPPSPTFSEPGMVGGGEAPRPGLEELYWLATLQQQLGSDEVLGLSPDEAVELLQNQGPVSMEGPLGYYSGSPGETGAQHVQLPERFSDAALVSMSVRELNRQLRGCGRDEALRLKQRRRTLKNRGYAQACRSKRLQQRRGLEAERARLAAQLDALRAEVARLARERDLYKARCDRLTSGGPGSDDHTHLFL
# NRL [4] = biological target: T1, NRL; experiment: EMSA; conditions: protein in a lysate after overexpression; protein details: COS-1 nuclear extract; label: 32P
sequence,measurement,setting,value
CTCCGAGGTGCTGATTCAGCCGGGA (double strand) [rhodopsin-NRE],binding result,NRL [1],binds
same,binding result,NRL p.A76V,binds more weakly
same,binding result,NRL p.L160P,no binding
same,binding result,NRL p.L160fs,no binding
same,binding result,NRL p.R218fs,no binding
GAGGGAGATATGCTTCATAAGGGCT (double strand) [non-specific oligo NS],binding result,NRL [2],no binding
TGGCCTCTGGTGGCTTTATTTGCAGTTCCAAGGCT (double strand) [Nr2e3-NRE mutant],binding result,NRL [3],no binding
TGGCCTCTGGTGGCTTTGTCAGCAGTTCCAAGGCT (double strand) [Nr2e3-NRE],binding result,NRL [4],binds
